# Reference: patent publication US10159726B2, “Peptides, combination of peptides and scaffolds for use in immunotherapeutic treatment of various cancers” (Immatics Biotechnologies GmbH, priority 2015, dated 2018)
# For some assays here: Expression grades refer to the transcript from which the peptide derives; gene names, where given, were looked up from the sequence.
# Columns and labels:
# Set-up in all cases: species or system human
# [1] = test system: source genes of selected peptides; test: Expression profiling of source genes by in-house RNAseq, tumor vs normal tissues (target coverage); conditions: for Target coverage for source genes of selected peptides, GBC_CCC (N = 10): gallbladder adenocarcinoma and cholangiocarcinoma; for Target coverage for source genes of selected peptides, GBC_CCC (N = 10) / Target coverage for source genes of selected peptides, GC (N = 11) / Target coverage for source genes of selected peptides, HNSCC (N = 10) / Target coverage for source genes of selected peptides, MEL (N = 10) / Target coverage for source genes of selected peptides, NHL (N = 10) / Target coverage for source genes of selected peptides, PCA (n = 10) / Target coverage for source genes of selected peptides, UBC (N = 10) / Target coverage for source genes of selected peptides, UTC (N = 10): share of tumors with more than 1.5-fold higher expression than the highest-expressing relevant normal tissue, in-house RNAseq; for Target coverage for source genes of selected peptides, GC (N = 11): gastric cancer; for Target coverage for source genes of selected peptides, HNSCC (N = 10): head and neck small cell carcinoma; for Target coverage for source genes of selected peptides, MEL (N = 10): melanoma; for Target coverage for source genes of selected peptides, NHL (N = 10): non-Hodgkin lymphoma; for Target coverage for source genes of selected peptides, PCA (n = 10): prostate cancer and benign prostate hyperplasia; for Target coverage for source genes of selected peptides, UBC (N = 10): urinary bladder cancer; for Target coverage for source genes of selected peptides, UTC (N = 10): uterine cancer; for Target coverage, over-expression of source gene, AML: AML (N = 7); for Target coverage, over-expression of source gene, AML / Target coverage, over-expression of source gene, BRCA / Target coverage, over-expression of source gene, CLL / Target coverage, over-expression of source gene, CRC / Target coverage, over-expression of source gene, GB / Target coverage, over-expression of source gene, HCC / Target coverage, over-expression of source gene, OC / Target coverage, over-expression of source gene, OSCAR / Target coverage, over-expression of source gene, PC / Target coverage, over-expression of source gene, RCC / Target coverage, over-expression of source gene, SCLC / Target coverage, over-expression of source gene, pNSCLC: share of tumors with more than 1.5-fold higher expression than highest relevant normal tissue, in-house RNASeq; for Target coverage, over-expression of source gene, BRCA: BRCA (N = 10); for Target coverage, over-expression of source gene, CLL: CLL (N = 10); for Target coverage, over-expression of source gene, CRC: CRC (N = 20); for Target coverage, over-expression of source gene, GB: GB (N = 24); for Target coverage, over-expression of source gene, HCC: HCC (N = 15); for Target coverage, over-expression of source gene, OC: OC (N = 12); for Target coverage, over-expression of source gene, OSCAR: OSCAR (N = 11); for Target coverage, over-expression of source gene, PC: PC (N = 26); for Target coverage, over-expression of source gene, RCC: RCC (N = 10); for Target coverage, over-expression of source gene, SCLC: SCLC (N = 10); for Target coverage, over-expression of source gene, pNSCLC: pNSCLC (N = 11)
# [2] = test system: source genes of selected peptides; test: Target coverage of source genes in tumor entities based on TCGA Research Network data; conditions: over-expressed = more than 2-fold above the highest 75% percentile of normal organs; for Target coverage, over-expression category of source gene, KIRP (N = 291): Kidney renal papillary cell carcinoma; for Target coverage, over-expression category of source gene, LGG (N = 534): Lower grade glioma
# [3] = test system: HLA-A*24 molecules of primary tumors; test: Identification and relative LC-MS quantitation of HLA-A*24 tumor-associated peptides presented on tissue samples (XPRESIDENT presentation profiles); conditions: for ENTITIES: Table 9A: selected HLA-A*24-binding tumor-associated peptides, cancer entities on which the peptide was found presented; for Peptide Presentation on cancer entities: Table 9B: selected HLA-A*24 peptides, presentation on additional cancer entities
Substance,"Target coverage for source genes of selected peptides, GBC_CCC (N = 10) [1]","Target coverage for source genes of selected peptides, GC (N = 11) [1]","Target coverage for source genes of selected peptides, HNSCC (N = 10) [1]","Target coverage for source genes of selected peptides, MEL (N = 10) [1]","Target coverage for source genes of selected peptides, NHL (N = 10) [1]","Target coverage for source genes of selected peptides, PCA (n = 10) [1]","Target coverage for source genes of selected peptides, UBC (N = 10) [1]","Target coverage, over-expression of source gene, AML [1]","Target coverage, over-expression of source gene, BRCA [1]","Target coverage, over-expression of source gene, CLL [1]","Target coverage, over-expression of source gene, CRC [1]","Target coverage, over-expression of source gene, GB [1]","Target coverage, over-expression of source gene, HCC [1]","Target coverage, over-expression of source gene, OC [1]","Target coverage, over-expression of source gene, OSCAR [1]","Target coverage, over-expression of source gene, PC [1]","Target coverage, over-expression of source gene, RCC [1]","Target coverage, over-expression of source gene, SCLC [1]","Target coverage, over-expression of source gene, pNSCLC [1]",Peptide Presentation on cancer entities [3],other results
180: peptide found in OXTR (gene looked up) (KYLQVVGMF; listed as Homo sapiens) [compound 180],I (<19% over-expression = I),I (<19% over-expression = I),I (<19% over-expression = I),I (<19% over-expression = I),I (<19% over-expression = I),I (<19% over-expression = I),I (<19% over-expression = I),,,,,,,,,,,,,,"Target coverage for source genes of selected peptides, UTC (N = 10) [1]: I (<19% over-expression = I); Target coverage, over-expression category of source gene, BLCA (N = 408) ([2]; Bladder urothelial carcinoma): C (>=5% of tumors above the cutoff, but <20%); Target coverage, over-expression category of source gene, CHOL (N = 36) ([2]; Cholangiocarcinoma): A (>=50% of tumors above the cutoff); Target coverage, over-expression category of source gene, KIRP (N = 291) [2]: C (>=5% of tumors above the cutoff, but <20%); Target coverage, over-expression category of source gene, LGG (N = 534) [2]: B (>=20% of tumors above the cutoff, but <50%); Target coverage, over-expression category of source gene, MESO (N = 87) ([2]; Mesothelioma): A (>=50% of tumors above the cutoff); Target coverage, over-expression category of source gene, PCPG (N = 184) ([2]; Pheochromocytoma and paraganglioma): C (>=5% of tumors above the cutoff, but <20%); ENTITIES [3]: NSCLC, GB"
181: peptide found in PGR (gene looked up) (VYPPYLNYL; listed as Homo sapiens) [compound 181],,,,,,,,I (<19% over-expression = I),II (20-49% = II),I (<19% over-expression = I),I (<19% over-expression = I),I (<19% over-expression = I),I (<19% over-expression = I),I (<19% over-expression = I),I (<19% over-expression = I),I (<19% over-expression = I),I (<19% over-expression = I),I (<19% over-expression = I),I (<19% over-expression = I),PCA,"Target coverage, over-expression category of source gene, ACC (N = 79) ([2]; Adrenocortical carcinoma): C (>=5% of tumors above the cutoff, but <20%); Target coverage, over-expression category of source gene, KICH (N = 66) ([2]; Kidney chromophobe): B (>=20% of tumors above the cutoff, but <50%)"
182: peptide found in PKD2L1 (gene looked up) (AYAQLGYLLF; listed as Homo sapiens) [compound 182],,,,,,,,I (<19% over-expression = I),I (<19% over-expression = I),I (<19% over-expression = I),I (<19% over-expression = I),I (<19% over-expression = I),I (<19% over-expression = I),I (<19% over-expression = I),I (<19% over-expression = I),I (<19% over-expression = I),I (<19% over-expression = I),II (20-49% = II),I (<19% over-expression = I),,"Target coverage, over-expression category of source gene, KIRP (N = 291) [2]: C (>=5% of tumors above the cutoff, but <20%); ENTITIES [3]: NSCLC"
191: peptide found in TIGIT (gene looked up) (TYPDGTYTGRIF; listed as Homo sapiens) [compound 191],I (<19% over-expression = I),I (<19% over-expression = I),I (<19% over-expression = I),I (<19% over-expression = I),II (20-49% = II),I (<19% over-expression = I),I (<19% over-expression = I),I (<19% over-expression = I),I (<19% over-expression = I),II (20-49% = II),I (<19% over-expression = I),I (<19% over-expression = I),I (<19% over-expression = I),I (<19% over-expression = I),I (<19% over-expression = I),I (<19% over-expression = I),I (<19% over-expression = I),I (<19% over-expression = I),I (<19% over-expression = I),NSCLC,"Target coverage for source genes of selected peptides, UTC (N = 10) [1]: I (<19% over-expression = I); Target coverage, over-expression category of source gene, DLBC (N = 48) ([2]; Lymphoid neoplasm diffuse large B-cell lymphoma): A (>=50% of tumors above the cutoff)"
198: peptide found in ABCA1 (gene looked up) (DYVGFTLKI; listed as Homo sapiens) [compound 198],,,,,,,,I (<19% over-expression = I),I (<19% over-expression = I),I (<19% over-expression = I),I (<19% over-expression = I),III (50-69% = III),I (<19% over-expression = I),I (<19% over-expression = I),I (<19% over-expression = I),I (<19% over-expression = I),I (<19% over-expression = I),I (<19% over-expression = I),II (20-49% = II),NSCLC,"Target coverage, over-expression category of source gene, LGG (N = 534) [2]: C (>=5% of tumors above the cutoff, but <20%)"
